This is one part of the list.

Amino acid sequences for entries named in this document (tags omitted). A change or cut given only in a name is not applied to a line headed by its entry.
UniProt Q9H6X4: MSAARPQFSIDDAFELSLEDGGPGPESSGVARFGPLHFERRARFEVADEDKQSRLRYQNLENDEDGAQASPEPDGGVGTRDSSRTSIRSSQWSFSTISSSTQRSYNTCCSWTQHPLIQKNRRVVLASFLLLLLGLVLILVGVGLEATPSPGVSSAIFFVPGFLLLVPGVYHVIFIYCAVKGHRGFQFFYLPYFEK
UniProt Q53S58: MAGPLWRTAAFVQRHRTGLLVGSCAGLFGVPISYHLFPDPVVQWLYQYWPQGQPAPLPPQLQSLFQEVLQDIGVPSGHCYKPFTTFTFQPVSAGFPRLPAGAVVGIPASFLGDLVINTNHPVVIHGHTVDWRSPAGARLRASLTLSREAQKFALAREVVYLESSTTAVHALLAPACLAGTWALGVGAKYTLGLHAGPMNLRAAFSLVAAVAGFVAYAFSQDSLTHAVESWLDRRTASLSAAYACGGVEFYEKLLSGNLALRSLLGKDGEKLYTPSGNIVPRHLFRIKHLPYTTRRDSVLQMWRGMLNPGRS
UniProt O94886: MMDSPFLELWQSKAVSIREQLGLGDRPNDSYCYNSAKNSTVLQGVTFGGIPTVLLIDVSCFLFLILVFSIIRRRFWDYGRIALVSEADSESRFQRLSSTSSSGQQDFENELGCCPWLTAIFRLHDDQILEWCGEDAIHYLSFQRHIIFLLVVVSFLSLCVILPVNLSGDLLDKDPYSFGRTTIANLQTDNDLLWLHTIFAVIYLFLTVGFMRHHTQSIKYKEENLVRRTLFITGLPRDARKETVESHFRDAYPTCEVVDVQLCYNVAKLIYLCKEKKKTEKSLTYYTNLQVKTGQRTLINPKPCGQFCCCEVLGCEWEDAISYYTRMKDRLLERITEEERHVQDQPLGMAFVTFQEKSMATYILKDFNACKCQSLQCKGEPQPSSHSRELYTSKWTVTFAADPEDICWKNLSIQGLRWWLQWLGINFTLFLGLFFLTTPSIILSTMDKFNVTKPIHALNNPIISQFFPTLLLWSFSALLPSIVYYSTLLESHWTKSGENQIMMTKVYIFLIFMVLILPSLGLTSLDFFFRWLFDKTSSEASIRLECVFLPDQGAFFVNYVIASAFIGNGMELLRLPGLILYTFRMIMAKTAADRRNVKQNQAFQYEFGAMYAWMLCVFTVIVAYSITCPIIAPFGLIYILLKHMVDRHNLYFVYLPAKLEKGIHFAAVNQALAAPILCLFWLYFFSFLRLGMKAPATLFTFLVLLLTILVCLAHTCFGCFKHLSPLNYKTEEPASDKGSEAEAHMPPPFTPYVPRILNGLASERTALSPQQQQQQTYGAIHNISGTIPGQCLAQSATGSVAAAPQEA
UniProt Q9BVK8: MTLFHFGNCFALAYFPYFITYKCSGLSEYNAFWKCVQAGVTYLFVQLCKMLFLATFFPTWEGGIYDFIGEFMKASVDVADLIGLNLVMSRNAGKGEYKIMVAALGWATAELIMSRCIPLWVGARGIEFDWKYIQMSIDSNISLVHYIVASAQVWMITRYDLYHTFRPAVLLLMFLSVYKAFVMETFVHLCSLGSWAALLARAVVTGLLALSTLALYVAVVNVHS
UniProt Q8TDI8: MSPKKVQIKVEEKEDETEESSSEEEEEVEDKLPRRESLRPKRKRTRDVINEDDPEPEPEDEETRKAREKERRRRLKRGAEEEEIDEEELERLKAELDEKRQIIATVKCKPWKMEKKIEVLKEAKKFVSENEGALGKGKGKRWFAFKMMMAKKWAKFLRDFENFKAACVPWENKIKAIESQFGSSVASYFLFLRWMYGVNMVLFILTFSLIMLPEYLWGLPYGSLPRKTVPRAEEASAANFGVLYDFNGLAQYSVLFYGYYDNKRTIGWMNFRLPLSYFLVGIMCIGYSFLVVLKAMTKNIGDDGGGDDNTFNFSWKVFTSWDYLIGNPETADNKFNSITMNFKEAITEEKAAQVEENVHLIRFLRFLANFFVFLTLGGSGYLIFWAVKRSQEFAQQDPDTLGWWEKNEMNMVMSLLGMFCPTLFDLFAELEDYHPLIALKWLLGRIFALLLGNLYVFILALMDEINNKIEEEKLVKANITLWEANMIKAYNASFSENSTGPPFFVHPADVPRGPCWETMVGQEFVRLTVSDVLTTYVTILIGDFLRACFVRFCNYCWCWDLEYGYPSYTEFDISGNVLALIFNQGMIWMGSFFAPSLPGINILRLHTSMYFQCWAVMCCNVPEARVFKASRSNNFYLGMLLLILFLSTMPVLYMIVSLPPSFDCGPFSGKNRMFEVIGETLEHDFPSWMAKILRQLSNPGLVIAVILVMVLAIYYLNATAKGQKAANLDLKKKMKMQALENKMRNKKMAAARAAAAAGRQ
UniProt Q9NR96: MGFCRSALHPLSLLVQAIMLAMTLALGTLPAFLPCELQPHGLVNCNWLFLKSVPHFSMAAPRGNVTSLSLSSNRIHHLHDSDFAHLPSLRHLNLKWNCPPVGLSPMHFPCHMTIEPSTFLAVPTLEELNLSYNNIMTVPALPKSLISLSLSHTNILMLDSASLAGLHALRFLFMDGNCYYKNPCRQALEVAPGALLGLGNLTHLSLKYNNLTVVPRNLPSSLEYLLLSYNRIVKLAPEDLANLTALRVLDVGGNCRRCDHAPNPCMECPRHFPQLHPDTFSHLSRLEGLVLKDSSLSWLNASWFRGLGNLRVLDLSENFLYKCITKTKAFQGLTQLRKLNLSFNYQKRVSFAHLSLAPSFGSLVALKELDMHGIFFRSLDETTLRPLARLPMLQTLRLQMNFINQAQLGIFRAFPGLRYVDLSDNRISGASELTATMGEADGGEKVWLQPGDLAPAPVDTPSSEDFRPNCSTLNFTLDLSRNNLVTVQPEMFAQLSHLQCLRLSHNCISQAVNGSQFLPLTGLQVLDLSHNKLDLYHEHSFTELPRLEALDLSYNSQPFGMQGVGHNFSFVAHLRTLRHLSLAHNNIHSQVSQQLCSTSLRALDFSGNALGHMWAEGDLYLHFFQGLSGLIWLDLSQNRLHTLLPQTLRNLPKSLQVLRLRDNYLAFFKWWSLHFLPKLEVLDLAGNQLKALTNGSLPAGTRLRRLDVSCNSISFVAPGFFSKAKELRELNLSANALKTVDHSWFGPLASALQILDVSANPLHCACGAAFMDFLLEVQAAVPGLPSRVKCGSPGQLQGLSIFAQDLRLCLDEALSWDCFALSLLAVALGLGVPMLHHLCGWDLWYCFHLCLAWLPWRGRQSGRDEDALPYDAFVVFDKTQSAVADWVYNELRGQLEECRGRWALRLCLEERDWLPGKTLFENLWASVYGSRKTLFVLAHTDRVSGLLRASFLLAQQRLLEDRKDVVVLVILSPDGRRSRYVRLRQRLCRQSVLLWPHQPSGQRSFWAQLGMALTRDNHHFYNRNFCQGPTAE
UniProt A0PJW6: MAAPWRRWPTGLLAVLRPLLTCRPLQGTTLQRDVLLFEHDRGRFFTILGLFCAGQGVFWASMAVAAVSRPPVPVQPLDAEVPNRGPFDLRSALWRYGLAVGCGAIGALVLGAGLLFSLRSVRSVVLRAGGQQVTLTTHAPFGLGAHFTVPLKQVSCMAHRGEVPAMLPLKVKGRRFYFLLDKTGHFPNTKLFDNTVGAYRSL
UniProt Q9NWH2: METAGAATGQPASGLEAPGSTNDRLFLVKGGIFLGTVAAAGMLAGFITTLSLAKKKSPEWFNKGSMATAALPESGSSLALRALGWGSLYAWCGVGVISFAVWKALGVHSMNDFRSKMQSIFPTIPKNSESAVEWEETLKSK
UniProt O00220, whole entry, looked up: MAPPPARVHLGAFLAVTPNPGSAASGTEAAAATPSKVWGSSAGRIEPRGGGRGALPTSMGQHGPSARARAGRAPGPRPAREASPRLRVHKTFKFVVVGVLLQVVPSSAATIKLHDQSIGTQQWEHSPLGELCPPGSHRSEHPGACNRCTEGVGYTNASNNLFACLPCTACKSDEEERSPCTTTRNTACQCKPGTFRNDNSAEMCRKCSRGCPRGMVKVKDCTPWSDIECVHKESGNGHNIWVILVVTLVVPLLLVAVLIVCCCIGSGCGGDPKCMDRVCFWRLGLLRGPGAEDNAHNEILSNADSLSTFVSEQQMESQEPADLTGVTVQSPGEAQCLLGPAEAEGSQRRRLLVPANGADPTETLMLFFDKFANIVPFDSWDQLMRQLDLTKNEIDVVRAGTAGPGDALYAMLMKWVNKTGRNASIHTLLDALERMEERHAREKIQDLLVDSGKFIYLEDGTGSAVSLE
UniProt Q9NQ34: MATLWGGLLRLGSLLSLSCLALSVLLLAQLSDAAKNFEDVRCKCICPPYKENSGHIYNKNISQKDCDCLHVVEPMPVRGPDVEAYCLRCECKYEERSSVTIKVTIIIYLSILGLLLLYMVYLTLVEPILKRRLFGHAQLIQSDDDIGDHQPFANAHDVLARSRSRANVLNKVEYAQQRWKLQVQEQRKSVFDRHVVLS
UniProt Q96K49: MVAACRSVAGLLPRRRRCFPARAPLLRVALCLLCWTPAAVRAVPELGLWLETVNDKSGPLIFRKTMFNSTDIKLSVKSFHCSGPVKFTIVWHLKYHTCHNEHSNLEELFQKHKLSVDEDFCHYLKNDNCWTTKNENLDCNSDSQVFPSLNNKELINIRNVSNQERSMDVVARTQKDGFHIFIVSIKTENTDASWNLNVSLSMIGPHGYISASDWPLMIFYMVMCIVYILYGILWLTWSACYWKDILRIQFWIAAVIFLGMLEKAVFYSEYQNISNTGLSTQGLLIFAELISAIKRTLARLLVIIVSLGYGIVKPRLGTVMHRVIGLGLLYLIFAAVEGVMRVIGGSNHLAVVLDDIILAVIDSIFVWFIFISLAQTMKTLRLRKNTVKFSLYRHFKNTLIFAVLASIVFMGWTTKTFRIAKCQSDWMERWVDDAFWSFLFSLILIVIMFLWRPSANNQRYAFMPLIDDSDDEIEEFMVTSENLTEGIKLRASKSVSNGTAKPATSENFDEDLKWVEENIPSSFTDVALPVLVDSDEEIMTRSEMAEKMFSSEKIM
UniProt P21580: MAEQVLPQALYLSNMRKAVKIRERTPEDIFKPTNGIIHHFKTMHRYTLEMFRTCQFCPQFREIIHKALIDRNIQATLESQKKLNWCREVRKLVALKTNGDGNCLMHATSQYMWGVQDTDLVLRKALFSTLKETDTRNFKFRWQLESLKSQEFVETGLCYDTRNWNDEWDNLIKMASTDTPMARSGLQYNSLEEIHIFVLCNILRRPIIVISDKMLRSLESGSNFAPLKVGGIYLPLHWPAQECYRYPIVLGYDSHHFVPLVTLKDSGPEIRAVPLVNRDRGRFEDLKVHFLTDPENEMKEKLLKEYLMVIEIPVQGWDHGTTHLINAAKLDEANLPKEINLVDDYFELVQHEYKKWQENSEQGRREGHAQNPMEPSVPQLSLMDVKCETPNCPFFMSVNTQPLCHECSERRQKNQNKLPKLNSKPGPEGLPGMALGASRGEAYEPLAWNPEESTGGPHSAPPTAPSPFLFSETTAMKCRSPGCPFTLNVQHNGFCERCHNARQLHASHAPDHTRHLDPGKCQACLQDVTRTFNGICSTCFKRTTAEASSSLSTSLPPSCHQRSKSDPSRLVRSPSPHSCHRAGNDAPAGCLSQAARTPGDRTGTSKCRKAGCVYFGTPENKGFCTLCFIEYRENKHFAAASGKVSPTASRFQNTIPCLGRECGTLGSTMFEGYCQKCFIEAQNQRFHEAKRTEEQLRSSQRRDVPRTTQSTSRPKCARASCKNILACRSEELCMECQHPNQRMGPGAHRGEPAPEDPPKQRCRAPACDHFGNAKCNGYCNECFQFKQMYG
UniProt Q8IY95: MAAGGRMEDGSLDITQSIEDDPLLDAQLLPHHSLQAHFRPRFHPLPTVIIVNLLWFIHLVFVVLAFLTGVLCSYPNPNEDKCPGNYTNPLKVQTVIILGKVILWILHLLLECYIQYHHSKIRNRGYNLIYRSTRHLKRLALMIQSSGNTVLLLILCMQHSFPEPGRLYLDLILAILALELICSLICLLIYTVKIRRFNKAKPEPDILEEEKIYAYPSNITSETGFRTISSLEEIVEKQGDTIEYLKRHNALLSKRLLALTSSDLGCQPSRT
UniProt Q96HV5: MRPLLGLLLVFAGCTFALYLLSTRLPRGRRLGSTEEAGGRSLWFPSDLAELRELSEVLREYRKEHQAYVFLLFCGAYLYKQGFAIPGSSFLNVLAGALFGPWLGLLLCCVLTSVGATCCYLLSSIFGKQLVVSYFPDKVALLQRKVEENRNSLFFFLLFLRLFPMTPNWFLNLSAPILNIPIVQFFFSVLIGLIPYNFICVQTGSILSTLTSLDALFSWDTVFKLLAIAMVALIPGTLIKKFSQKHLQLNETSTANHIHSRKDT
UniProt Q86XT9, whole entry, looked up: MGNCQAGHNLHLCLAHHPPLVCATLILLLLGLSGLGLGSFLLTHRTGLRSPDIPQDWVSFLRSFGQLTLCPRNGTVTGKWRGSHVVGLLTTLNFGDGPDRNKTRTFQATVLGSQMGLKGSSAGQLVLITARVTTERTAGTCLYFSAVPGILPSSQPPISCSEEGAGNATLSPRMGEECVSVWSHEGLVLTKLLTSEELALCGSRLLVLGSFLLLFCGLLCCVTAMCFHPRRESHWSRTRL

Compound in the assay: CC(C)(O)CC(=O)NCCn1ccc2ncnc(Nc3ccc(Oc4cccc(C(F)(F)F)c4)c(Cl)c3)c21
The assay can be described thus: log2 fold change, soluble protein after heating vs DMSO (PISA); higher = thermal stabilisation; K562 cells, 10 uM, 30 min; active = over 0.2 and 3.5 SD of the protein, either way, in both replicates (recomputed). In short, it runs like this:
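Values are thermal stability changes relative to control samples and are taken from duplicates. They are stated as log2 fold changes. Before quantification by TMTpro 16plex LC-MS/MS with equalised channel sums, K562 cells at 2×10^6 cells/mL were treated with 10 μM compound for 30 min, heated in aliquots for 3 min across 48°C-58°C, pooled, extracted in PBS with 0.5% NP-40 at 4°C, and centrifuged at 21,000xg for 90 min to give the soluble supernatant.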
For the target TMEM134 (UniProt Q9H6X4), the log2 fold change is inactive: -0.091. As for TMEM177 (UniProt Q53S58), the log2 fold change is inactive: -0.023.

Regarding TMEM63A (UniProt O94886), the log2 fold change was inactive: -0.039.

As for TMEM147 (UniProt Q9BVK8), the log2 fold change was inactive: -0.065. To TMC1 (UniProt Q8TDI8) belongs inactive: 0.016. For TLR9 isoform 4 (UniProt Q9NR96), the log2 fold change is inactive: 0.011. Regarding TMEM223 (UniProt A0PJW6), the log2 fold change was inactive: 0.114. As for TMEM242 (UniProt Q9NWH2), the figure is inactive: 0.025; as for TNFRSF10A (UniProt O00220), inactive: -0.073. To TMEM9B (UniProt Q9NQ34) belongs inactive: 0.014; to TMEM268 isoform 3 (UniProt Q5VZI3), inactive: -0.334. To TMEM87B (UniProt Q96K49) belongs inactive: -0.204; to TMEM161B (UniProt Q8NDZ6), active: -0.227. In the case of TM6SF1 (UniProt Q9BZW5), the log2 fold change is inactive: -0.012. As for TMEM104 (UniProt Q8NE00), the figure is inactive: 0.009. For the target TNFAIP3 (UniProt P21580), the log2 fold change was inactive: 0.083. To TNFRSF10B (UniProt O14763) belongs inactive: -0.075; to TMEM192 (UniProt Q8IY95), inactive: 0.004; to TMEM41A (UniProt Q96HV5), inactive: 0.022. For TMEM123 (UniProt Q8N131), the log2 fold change is inactive: 0.005.

Regarding TMBIM1 (UniProt Q969X1), the log2 fold change was inactive: 0.16. To TMEM219 (UniProt Q86XT9) belongs inactive: -0.015.

These data come from the supplement of paper PMC10849652.
